Experimental data taken from US7807783 (REGENTS OF THE UNIVERSITY OF MICHIGAN, dated 2010).

The chains behind the UniProt entries cited, without tags or fusion partners. Where a name states a change or a piece, a line headed by the entry shows the natural chain unless it says otherwise.
UniProt P25445: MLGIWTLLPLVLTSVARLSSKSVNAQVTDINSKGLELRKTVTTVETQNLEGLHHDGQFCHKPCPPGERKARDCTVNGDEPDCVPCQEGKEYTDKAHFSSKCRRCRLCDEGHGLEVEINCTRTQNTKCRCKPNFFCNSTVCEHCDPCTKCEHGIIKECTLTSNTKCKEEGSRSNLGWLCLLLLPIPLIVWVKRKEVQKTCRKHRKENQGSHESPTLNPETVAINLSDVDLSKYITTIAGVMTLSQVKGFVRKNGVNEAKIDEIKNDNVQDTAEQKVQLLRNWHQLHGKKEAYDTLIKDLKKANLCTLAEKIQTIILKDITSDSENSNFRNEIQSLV

Experiments:
[1] = molecular target: FLAG-epitope tagged Fas (FLAG-Fas) (UniProt P25445); test: double immunoprecipitation, anti-HA then anti-FLAG, from cotransfected 293T cells
[2] = molecular target: FLAG-epitope tagged Fas (FLAG-Fas) (UniProt P25445); test: co-immunoprecipitation with anti-HA from cotransfected 293T cells
[3] = molecular target: FLAG-epitope tagged Fas (FLAG-Fas) (UniProt P25445); test: co-immunoprecipitation from cotransfected 293T cells

Measured: binding

B1: HA-epitope tagged FADD (HA-FADD) (other)
chain: YPYDVPDYAMDPFLVLLHSVSSSLSSSELTELKFLCLGRVGKRKLERVQSGLDLFSMLLEQNDLEPGHTELLRELLASLRRHDLLRRVDDFEAGAAAGAAPGEEDLCAAFNVICDNVGKDWRRLARQLKVSDTKIDSIEDRYPRNLTERVRESLRIWKNTEKENATVAHLVGALRSCQMNLVADLVQEVQQARDLQNRSGAMSPMSWNSDASTSEAS
modifications: 35S-methionine/cysteine metabolic or in vitro translation label
notes: also called in vitro translated FADD; 35S-labeled FADD
binds: all assays above

No constants are given. Whether binding was seen depends on the method and setting. A result given as binding can be weak or reduced; the word gives no strength. For part of these data: Binding seen in cells or lysates may run through a third protein.
